# Laboratory results taken from the supplement of paper PMC10032668.
# Amino acid sequences for entries named in this document (tags omitted).
# FLNB, O75369, UniProt O75369, whole entry: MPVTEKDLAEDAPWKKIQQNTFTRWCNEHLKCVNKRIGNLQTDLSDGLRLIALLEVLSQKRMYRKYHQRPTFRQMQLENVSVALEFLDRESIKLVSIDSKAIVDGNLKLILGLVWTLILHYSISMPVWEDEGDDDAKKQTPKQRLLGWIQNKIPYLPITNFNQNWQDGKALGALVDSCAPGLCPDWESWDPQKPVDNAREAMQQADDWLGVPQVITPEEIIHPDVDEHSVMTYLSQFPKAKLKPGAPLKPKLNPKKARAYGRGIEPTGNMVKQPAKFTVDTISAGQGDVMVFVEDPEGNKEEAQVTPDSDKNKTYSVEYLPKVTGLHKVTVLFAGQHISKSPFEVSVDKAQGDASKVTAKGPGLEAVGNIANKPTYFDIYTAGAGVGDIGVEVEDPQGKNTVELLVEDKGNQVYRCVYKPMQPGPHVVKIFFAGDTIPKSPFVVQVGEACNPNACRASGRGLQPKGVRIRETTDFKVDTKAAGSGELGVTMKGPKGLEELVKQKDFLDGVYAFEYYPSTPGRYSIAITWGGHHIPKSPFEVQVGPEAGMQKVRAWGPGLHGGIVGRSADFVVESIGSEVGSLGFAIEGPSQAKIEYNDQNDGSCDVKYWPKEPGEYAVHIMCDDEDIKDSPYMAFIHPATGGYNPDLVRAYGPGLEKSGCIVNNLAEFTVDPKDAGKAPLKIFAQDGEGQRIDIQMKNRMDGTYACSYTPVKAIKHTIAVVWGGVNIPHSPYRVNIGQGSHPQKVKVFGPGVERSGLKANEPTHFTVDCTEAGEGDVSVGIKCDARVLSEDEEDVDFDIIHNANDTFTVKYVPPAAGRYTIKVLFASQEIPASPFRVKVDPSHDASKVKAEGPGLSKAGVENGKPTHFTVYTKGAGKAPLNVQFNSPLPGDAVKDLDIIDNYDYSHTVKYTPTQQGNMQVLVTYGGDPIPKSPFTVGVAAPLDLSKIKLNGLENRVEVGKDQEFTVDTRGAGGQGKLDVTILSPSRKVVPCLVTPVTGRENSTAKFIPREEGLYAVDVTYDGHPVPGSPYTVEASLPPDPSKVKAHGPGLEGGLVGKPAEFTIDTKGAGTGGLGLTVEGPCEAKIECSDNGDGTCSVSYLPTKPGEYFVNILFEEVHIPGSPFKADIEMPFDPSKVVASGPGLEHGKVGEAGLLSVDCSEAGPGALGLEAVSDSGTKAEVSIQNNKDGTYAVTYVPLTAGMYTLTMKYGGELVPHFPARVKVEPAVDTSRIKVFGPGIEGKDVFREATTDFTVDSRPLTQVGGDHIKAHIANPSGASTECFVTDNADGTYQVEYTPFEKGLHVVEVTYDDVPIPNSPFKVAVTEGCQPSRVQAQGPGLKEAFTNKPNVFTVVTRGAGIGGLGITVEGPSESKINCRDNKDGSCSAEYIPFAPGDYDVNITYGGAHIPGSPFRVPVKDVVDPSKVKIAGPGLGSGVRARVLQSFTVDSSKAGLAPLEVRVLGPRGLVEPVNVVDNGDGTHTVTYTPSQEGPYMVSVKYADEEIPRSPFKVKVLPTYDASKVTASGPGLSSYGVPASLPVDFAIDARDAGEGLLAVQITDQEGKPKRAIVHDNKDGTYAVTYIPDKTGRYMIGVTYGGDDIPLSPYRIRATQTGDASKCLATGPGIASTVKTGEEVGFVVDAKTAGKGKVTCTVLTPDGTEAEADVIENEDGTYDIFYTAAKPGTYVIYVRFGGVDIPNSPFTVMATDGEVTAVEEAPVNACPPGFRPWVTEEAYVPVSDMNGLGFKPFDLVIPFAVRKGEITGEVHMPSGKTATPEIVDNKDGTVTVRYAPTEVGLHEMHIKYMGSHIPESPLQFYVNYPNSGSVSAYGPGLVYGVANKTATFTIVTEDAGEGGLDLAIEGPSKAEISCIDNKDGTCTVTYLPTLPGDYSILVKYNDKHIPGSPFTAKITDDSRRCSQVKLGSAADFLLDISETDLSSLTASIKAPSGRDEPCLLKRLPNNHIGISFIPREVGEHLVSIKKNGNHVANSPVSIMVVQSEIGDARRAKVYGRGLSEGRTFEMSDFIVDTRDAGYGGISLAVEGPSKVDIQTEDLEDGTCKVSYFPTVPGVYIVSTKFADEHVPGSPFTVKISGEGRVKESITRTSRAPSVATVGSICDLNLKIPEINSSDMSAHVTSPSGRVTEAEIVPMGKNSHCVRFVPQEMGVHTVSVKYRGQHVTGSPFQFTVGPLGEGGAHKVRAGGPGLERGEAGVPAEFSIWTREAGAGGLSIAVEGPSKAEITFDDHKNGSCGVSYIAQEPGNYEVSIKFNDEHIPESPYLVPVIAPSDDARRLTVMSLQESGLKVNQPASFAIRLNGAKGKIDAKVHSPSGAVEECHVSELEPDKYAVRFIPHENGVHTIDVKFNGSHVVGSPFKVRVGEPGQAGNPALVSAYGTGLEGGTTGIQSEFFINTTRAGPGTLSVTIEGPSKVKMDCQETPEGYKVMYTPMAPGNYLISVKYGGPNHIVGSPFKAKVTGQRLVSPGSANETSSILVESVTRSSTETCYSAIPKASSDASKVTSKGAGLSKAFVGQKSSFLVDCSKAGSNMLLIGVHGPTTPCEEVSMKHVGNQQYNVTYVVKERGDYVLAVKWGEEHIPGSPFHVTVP
# GSPT2, Q8IYD1, UniProt Q8IYD1, whole entry: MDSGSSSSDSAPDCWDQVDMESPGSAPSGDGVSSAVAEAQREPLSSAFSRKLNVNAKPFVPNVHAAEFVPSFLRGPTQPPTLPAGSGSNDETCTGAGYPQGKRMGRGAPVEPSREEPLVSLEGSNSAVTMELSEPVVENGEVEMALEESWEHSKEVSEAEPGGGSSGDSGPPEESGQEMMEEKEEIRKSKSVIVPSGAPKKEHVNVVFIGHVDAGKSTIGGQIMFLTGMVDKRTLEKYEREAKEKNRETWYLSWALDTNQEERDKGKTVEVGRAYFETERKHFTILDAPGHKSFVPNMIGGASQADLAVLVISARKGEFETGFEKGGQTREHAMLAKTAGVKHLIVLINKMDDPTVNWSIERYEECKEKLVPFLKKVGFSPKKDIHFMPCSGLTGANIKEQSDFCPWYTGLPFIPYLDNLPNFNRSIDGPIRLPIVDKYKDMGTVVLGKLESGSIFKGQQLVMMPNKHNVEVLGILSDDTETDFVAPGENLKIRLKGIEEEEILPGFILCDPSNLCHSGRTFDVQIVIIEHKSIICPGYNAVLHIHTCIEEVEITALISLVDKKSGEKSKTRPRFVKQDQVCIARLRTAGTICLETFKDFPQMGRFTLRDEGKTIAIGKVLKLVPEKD
# This is one part of the list. Only hits are listed; about a third recur on repeated control peptides.
# Legend:
# Test in all cases: PRISMA enrichment of interactor (LFQ) in peptide spot vs all other peptide spots (log2 fold change); higher = stronger / more specific binding of the interactor to the peptide
# [1] = target: AAR2, Q9Y312
# Description: (§1)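 PRISMA: 15-aa overlapping tiles (offset 8 aa) of 60 microproteins, plus SOS1/GLUT1 control peptides, were spot-synthesized on cellulose membranes in triplicate. Membranes were incubated with benzonase-treated HEK293T lysate, and bound proteins were identified by LC-MS/MS with LFQ. Enrichment is the log2 fold change of each protein in one spot versus all other spots. Only interactors passing the significance cutoff are listed.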
# [2] = target: ABCF1, Q8NE71
# Description: as §1
# [3] = target: ALDH3A2, P51648
# Description: as §1
# [4] = target: AP2A1, O95782
# Description: as §1
# [5] = target: CBLL1, Q75N03
# Description: as §1
# [6] = target: CCNT1, O60563
# Description: as §1
# [7] = target: CEP290, O15078
# Description: as §1
# [8] = target: CHEK1, O14757
# Description: as §1
# [9] = target: CLPX, O76031
# Description: as §1
# [10] = target: CNOT8, Q9UFF9
# Description: as §1
# [11] = target: COA4, Q9NYJ1
# Description: as §1
# [12] = target: COA6, Q5JTJ3
# Description: as §1
# [13] = target: COL4A3BP, Q9Y5P4
# Description: as §1
# [14] = target: CWC22, Q9HCG8
# Description: as §1
# [15] = target: DCTPP1, Q9H773
# Description: as §1
# [16] = target: DDX52, Q9Y2R4
# Description: as §1
# [17] = target: DHRS7B, Q6IAN0
# Description: as §1
# [18] = target: DHX37, Q8IY37
# Description: as §1
# [19] = target: ESF1, Q9H501
# Description: as §1
# [20] = target: FASTKD5, Q7L8L6
# Description: as §1
# [21] = target: FLNB, O75369
# Description: as §1
# [22] = target: HNRNPAB, Q99729
# Description: as §1
# [23] = target: IGF2BP2, Q9Y6M1
# Description: as §1
# [24] = target: JAGN1, Q8N5M9
# Description: as §1
# [25] = target: KMT2A, Q03164
# Description: as §1
# [26] = target: KRI1, Q8N9T8
# Description: as §1
# [27] = target: LARP4, Q71RC2
# Description: as §1
# [28] = target: MAIP1, Q8WWC4
# Description: as §1
# [29] = target: MARCKS, P29966
# Description: as §1
# [30] = target: MRPS15, P82914
# Description: as §1
# [31] = target: NDUFA10, O95299
# Description: as §1
# [32] = target: NUDC, Q9Y266
# Description: as §1
# [33] = target: PDCD5, O14737
# Description: as §1
# [34] = target: PEX3, P56589
# Description: as §1
# [35] = target: PFN2, P35080
# Description: as §1
# [36] = target: PGAM5, Q96HS1
# Description: as §1
# [37] = target: PHIP, Q8WWQ0
# Description: as §1
# [38] = target: PRRC2A, P48634
# Description: as §1
# [39] = target: PRRC2C, Q9Y520
# Description: as §1
# [40] = target: PTMS, P20962
# Description: as §1
# [41] = target: RAB6A, P20340
# Description: as §1
# [42] = target: RCN1, Q15293
# Description: as §1
# [43] = target: REEP5, Q00765
# Description: as §1
# [44] = target: RIF1, Q5UIP0
# Description: as §1
# [45] = target: ROCK1, Q13464
# Description: as §1
# [46] = target: SEMG1, P04279
# Description: as §1
# [47] = target: SEMG2, Q02383
# Description: as §1
# [48] = target: SF1, Q15637
# Description: as §1
# [49] = target: SFXN4, Q6P4A7
# Description: as §1
# [50] = target: SMARCD1, Q96GM5
# Description: as §1
# [51] = target: SMC2, O95347
# Description: as §1
# [52] = target: SPATA5, Q8NB90
# Description: as §1
# [53] = target: SUZ12, Q15022
# Description: as §1
# [54] = target: THRAP3, Q9Y2W1
# Description: as §1
# [55] = target: TSPYL2, Q9H2G4
# Description: as §1
# [56] = target: TXNDC12, O95881
# Description: as §1
# [57] = target: UBXN7, O94888
# Description: as §1
# [58] = target: UHRF1, Q96T88
# Description: as §1
# [59] = target: UQCRQ, O14949
# Description: as §1
# [60] = target: VPS35, Q96QK1
# Description: as §1
# [61] = target: AAMDC, Q9H7C9
# Description: as §1
# [62] = target: C11orf58, O00193
# Description: as §1
# [63] = target: DBNL, Q9UJU6
# Description: as §1
# [64] = target: EP300, Q09472
# Description: as §1
# [65] = target: GSPT2, Q8IYD1
# Description: as §1
# [66] = target: IST1, P53990
# Description: as §1
# [67] = target: MYO6, Q9UM54
# Description: as §1
# [68] = target: PARK7, Q99497
# Description: as §1
# [69] = target: PJA2, O43164
# Description: as §1
# [70] = target: PPIL1, Q9Y3C6
# Description: as §1
# [71] = target: PRKAA2, P54646
# Description: as §1
# [72] = target: RBM38, Q9H0Z9
# Description: as §1
# [73] = target: SASS6, Q6UVJ0
# Description: as §1
# [74] = target: SF3B4, Q15427
# Description: as §1
# [75] = target: STAT3, P40763
# Description: as §1
# [76] = target: ZC2HC1A, Q96GY0
# Description: as §1
binder,measurement,setting,value
RSTSMPSMAGTGHPL [RP11-140K17.3_2],PRISMA enrichment of interactor (log2),[1],4.15
same,PRISMA enrichment of interactor (log2),[2],5.57
same,PRISMA enrichment of interactor (log2),[3],4.52
same,PRISMA enrichment of interactor (log2),[4],5.32
same,PRISMA enrichment of interactor (log2),[5],5.1
same,PRISMA enrichment of interactor (log2),[6],4.41
same,PRISMA enrichment of interactor (log2),[7],5.23
same,PRISMA enrichment of interactor (log2),[8],5.38
same,PRISMA enrichment of interactor (log2),[9],5.84
same,PRISMA enrichment of interactor (log2),[10],3.88
same,PRISMA enrichment of interactor (log2),[11],4.63
same,PRISMA enrichment of interactor (log2),[12],4.17
same,PRISMA enrichment of interactor (log2),[13],5.3
same,PRISMA enrichment of interactor (log2),[14],5.88
same,PRISMA enrichment of interactor (log2),[15],4.29
same,PRISMA enrichment of interactor (log2),[16],5.25
same,PRISMA enrichment of interactor (log2),[17],5.12
same,PRISMA enrichment of interactor (log2),[18],5.6
same,PRISMA enrichment of interactor (log2),[19],4.48
same,PRISMA enrichment of interactor (log2),[20],4.09
same,PRISMA enrichment of interactor (log2),[21],4.76
same,PRISMA enrichment of interactor (log2),[22],7.65
same,PRISMA enrichment of interactor (log2),[23],4.55
same,PRISMA enrichment of interactor (log2),[24],7.87
same,PRISMA enrichment of interactor (log2),[25],3.85
same,PRISMA enrichment of interactor (log2),[26],4.78
same,PRISMA enrichment of interactor (log2),[27],5.31
same,PRISMA enrichment of interactor (log2),[28],4.73
same,PRISMA enrichment of interactor (log2),[29],4.34
same,PRISMA enrichment of interactor (log2),[30],7.94
same,PRISMA enrichment of interactor (log2),[31],4.81
same,PRISMA enrichment of interactor (log2),[32],5.4
same,PRISMA enrichment of interactor (log2),[33],4.48
same,PRISMA enrichment of interactor (log2),[34],5.73
same,PRISMA enrichment of interactor (log2),[35],7.8
same,PRISMA enrichment of interactor (log2),[36],5.37
same,PRISMA enrichment of interactor (log2),[37],7.56
same,PRISMA enrichment of interactor (log2),[38],4.48
same,PRISMA enrichment of interactor (log2),[39],8.74
same,PRISMA enrichment of interactor (log2),[40],9.63
same,PRISMA enrichment of interactor (log2),[41],6.7
same,PRISMA enrichment of interactor (log2),[42],5.66
same,PRISMA enrichment of interactor (log2),[43],4.44
same,PRISMA enrichment of interactor (log2),[44],5.06
same,PRISMA enrichment of interactor (log2),[45],4.39
same,PRISMA enrichment of interactor (log2),[46],5.16
same,PRISMA enrichment of interactor (log2),[47],4.15
same,PRISMA enrichment of interactor (log2),[48],4.36
same,PRISMA enrichment of interactor (log2),[49],10.1
same,PRISMA enrichment of interactor (log2),[50],7.51
same,PRISMA enrichment of interactor (log2),[51],5.33
same,PRISMA enrichment of interactor (log2),[52],4.38
same,PRISMA enrichment of interactor (log2),[53],5.96
same,PRISMA enrichment of interactor (log2),[54],5.92
same,PRISMA enrichment of interactor (log2),[55],7.21
same,PRISMA enrichment of interactor (log2),[56],5.03
same,PRISMA enrichment of interactor (log2),[57],4.09
same,PRISMA enrichment of interactor (log2),[58],4.69
same,PRISMA enrichment of interactor (log2),[59],5.43
same,PRISMA enrichment of interactor (log2),[60],12.5
FLAERMLAVPVTCGD [PVT1],PRISMA enrichment of interactor (log2),[61],4.94
same,PRISMA enrichment of interactor (log2),[62],5.79
same,PRISMA enrichment of interactor (log2),[63],4.43
same,PRISMA enrichment of interactor (log2),[64],6.74
same,PRISMA enrichment of interactor (log2),[65],4.82
same,PRISMA enrichment of interactor (log2),[66],4.93
same,PRISMA enrichment of interactor (log2),[30],6.72
same,PRISMA enrichment of interactor (log2),[67],4.46
same,PRISMA enrichment of interactor (log2),[68],7.34
same,PRISMA enrichment of interactor (log2),[69],4.87
same,PRISMA enrichment of interactor (log2),[70],4.97
same,PRISMA enrichment of interactor (log2),[71],13
same,PRISMA enrichment of interactor (log2),[72],6.5
same,PRISMA enrichment of interactor (log2),[73],5.79
same,PRISMA enrichment of interactor (log2),[74],5.86
same,PRISMA enrichment of interactor (log2),[75],4.72
same,PRISMA enrichment of interactor (log2),[76],6.3

# For convenience, some entries already given.
binder,measurement,setting,value
RSTSMPSMAGTGHPL [RP11-140K17.3_2],PRISMA enrichment of interactor (log2),[36],5.37
same,PRISMA enrichment of interactor (log2),[37],7.56
same,PRISMA enrichment of interactor (log2),[38],4.48
same,PRISMA enrichment of interactor (log2),[39],8.74
same,PRISMA enrichment of interactor (log2),[40],9.63
same,PRISMA enrichment of interactor (log2),[41],6.7
same,PRISMA enrichment of interactor (log2),[42],5.66
same,PRISMA enrichment of interactor (log2),[43],4.44
same,PRISMA enrichment of interactor (log2),[44],5.06
same,PRISMA enrichment of interactor (log2),[45],4.39
same,PRISMA enrichment of interactor (log2),[46],5.16
same,PRISMA enrichment of interactor (log2),[47],4.15
same,PRISMA enrichment of interactor (log2),[48],4.36
same,PRISMA enrichment of interactor (log2),[49],10.1
same,PRISMA enrichment of interactor (log2),[50],7.51
same,PRISMA enrichment of interactor (log2),[51],5.33
same,PRISMA enrichment of interactor (log2),[52],4.38
same,PRISMA enrichment of interactor (log2),[53],5.96
same,PRISMA enrichment of interactor (log2),[54],5.92
same,PRISMA enrichment of interactor (log2),[55],7.21
same,PRISMA enrichment of interactor (log2),[56],5.03
same,PRISMA enrichment of interactor (log2),[57],4.09
same,PRISMA enrichment of interactor (log2),[58],4.69
